Assay results as given in paper PMC7760514 (Antibiotics, 2020).

Assay: general procedure: Fmoc solid-phase peptide synthesis; Tenta Gel R RAM resin (Rapp polymers, loading 0.2 mmol/g); HBTU/DIPEA
Conditions: whole synthesis, total yield

GKKYRRFRWKFKGKLFLFG-NH2
isolated yield: 16.2%
